This assay relates to L1210 leukemia ip in BDF1 mice, survival T/C. Briefly: NCI In Vivo Anticancer Drug Screen. Data for tumor model L1210 Leukemia (intraperitoneal) in B6D2F1 (BDF1) mice. Particulars: T/C endpoint: mean survival time, higher T/C = longer survival.
[1] abbreviates: dose: 100.0 mg/kg/injection, schedule: Q01DX001 (ip), vehicle: saline.
The mark [2] stands for this setting: dose: 200.0 mg/kg/injection, schedule: Q01DX001 (ip), vehicle: saline.
Where [3] appears, read: dose: 400.0 mg/kg/injection, schedule: Q01DX001 (ip), vehicle: saline.
The mark [4] stands for this setting: dose: 100.0 mg/kg/injection, schedule: Q01DX001 (ip), vehicle: carboxymethylcellulose (CMC).
The mark [5] stands for this setting: dose: 200.0 mg/kg/injection, schedule: Q01DX001 (ip), vehicle: carboxymethylcellulose (CMC).
The mark [6] stands for this setting: dose: 400.0 mg/kg/injection, schedule: Q01DX001 (ip), vehicle: carboxymethylcellulose (CMC).

The list shows only some results of the screen, not a fair sample: its compounds were picked by chemical class. Other doses and runs of a compound may be missing. T/C: endpoint of the treated group in % of that of the vehicle group. Some entries give survivors of the animals treated and no T/C: the source holds a T/C of zero for them, seemingly a mark for toxic or unscored doses. Survivors were counted at the toxicity check, usually on the fifth day, unless a day is given; later deaths do not show. Schedule codes are those of the source, read here as Q, the interval in days (D) or hours (H), X, the number of doses. Some complexes appear as separate parts, the way the source draws them; their charges need not add up. For survival time, this PubChem deposit counts one and a half times the control or more as active, and values a quarter to a half above the control carry no call in these data; other NCI protocols may use other cut-offs. Some entries were tested several times; the results are listed from low to high. Some entries show no survivor count and are marked so; the dose need not have been tolerated. Some T/C values are followed by the survivors on the day toxicity was checked, most often the fifth; where neither a count nor a note follows, no animal had died by that day.

In the case of `CCOC(=O)C1(c2ccccc2)CCNCC1`, the T/C under setting [1] is 103 % of control. For the same compound, the survivor count under setting [2] was 0 of 6 and the survivor count under setting [3] is recorded as 0 of 6.

Regarding `ClCCN(CCCl)B1SCCS1`, the T/C reads like this: (dose: 2.5 mg/kg/injection, schedule: Q01DX001 (ip), vehicle: carboxymethylcellulose (CMC)) 98 % of control; (dose: 2.5 mg/kg/injection, schedule: Q01DX001 (sc), vehicle: olive oil, sesame oil, peanut oil) 98 % of control; (dose: 5.0 mg/kg/injection, schedule: Q01DX001 (ip), vehicle: carboxymethylcellulose (CMC)) 98 % of control; (dose: 5.0 mg/kg/injection, schedule: Q01DX001 (sc), vehicle: olive oil, sesame oil, peanut oil) 98 % of control; (dose: 10.0 mg/kg/injection, schedule: Q01DX001 (ip), vehicle: carboxymethylcellulose (CMC)) 97 % of control; (dose: 10.0 mg/kg/injection, schedule: Q01DX001 (sc), vehicle: olive oil, sesame oil, peanut oil) 97 % of control. The T/C (dose: 20.0 mg/kg/injection, schedule: Q01DX001 (ip), vehicle: carboxymethylcellulose (CMC)) was 110 % of control and the T/C (dose: 20.0 mg/kg/injection, schedule: Q01DX001 (sc), vehicle: olive oil, sesame oil, peanut oil) is 101 % of control.

On to `O=P(Cl)(Nc1ccccc1)Nc1ccccc1`, for which the T/C (dose: 100.0 mg/kg/injection, schedule: Q04DX003 (ip), vehicle: saline with Tween-80, evaluated on day 20) is 101 % of control; the T/C (dose: 100.0 mg/kg/injection, schedule: Q04DX003 (ip), vehicle: saline with Tween-80, evaluated on day 30) was 92 % of control; the T/C (dose: 200.0 mg/kg/injection, schedule: Q04DX003 (ip), vehicle: saline with Tween-80, evaluated on day 20) is 103 % of control; the T/C (dose: 200.0 mg/kg/injection, schedule: Q04DX003 (ip), vehicle: saline with Tween-80, evaluated on day 30) is 101 % of control; the T/C (dose: 400.0 mg/kg/injection, schedule: Q04DX003 (ip), vehicle: saline with Tween-80, evaluated on day 20) is 101 % of control; the T/C (dose: 400.0 mg/kg/injection, schedule: Q04DX003 (ip), vehicle: saline with Tween-80, evaluated on day 30) was 97 % of control.

In the case of `C/C1=C2N=C(/C=C3N=C(/C(C)=C4\[N-]C(C(CC(N)=O)C4(C)CCC(=O)NCC(C)OP(=O)(O)OC4C(CO)OC(n5cnc6cc(C)c(C)cc65)C4O)C4(C)N=C1C(CCC(N)=O)C4(C)CC(N)=O)C(CCC(N)=O)C\3(C)C)C(CCC(N)=O)C/2(C)CC(N)=O.[C-]#N.[Co+2]` (stereo unspecified), the T/C was 96 % of control under setting [1], 96 % of control under setting [2] and 105 % of control under setting [3].

For `CCN(CCCl)Cc1csc2ccccc12`, the T/C (dose: 5.0 mg/kg/injection, schedule: Q01DX001 (ip), vehicle: saline) is 107 % of control; the T/C (dose: 10.0 mg/kg/injection, schedule: Q01DX001 (ip), vehicle: saline) is 96 % of control; the T/C (dose: 20.0 mg/kg/injection, schedule: Q01DX001 (ip), vehicle: saline) is 102 % of control; the T/C (dose: 40.0 mg/kg/injection, schedule: Q01DX001 (ip), vehicle: saline) was 112 % of control. Also, the survivor count was 1 of 4 (dose: 80.0 mg/kg/injection, schedule: Q01DX001 (ip), vehicle: saline); 0 of 4 under setting [1]; 0 of 4 under setting [2]; 0 of 4 under setting [3].

As to `CN(C)P(N)(Cl)(c1ccccc1)N(C)C`, the T/C was 101 % of control (dose: 15.0 mg/kg/injection, schedule: Q01DX001 (ip), vehicle: saline); 102 % of control (dose: 30.0 mg/kg/injection, schedule: Q01DX001 (ip), vehicle: saline); 90 % of control (dose: 60.0 mg/kg/injection, schedule: Q01DX001 (ip), vehicle: saline). The survivor count is on record as 1 of 6 under setting [1], 0 of 6 under setting [2] and 0 of 6 under setting [3].

On to `[B-][N+]1(C)CCN(C)P1F` (stereo unspecified), for which the T/C runs as follows: (dose: 38.0 mg/kg/injection, schedule: Q01DX001 (ip), vehicle: carboxymethylcellulose (CMC)) 104 % of control; (dose: 75.0 mg/kg/injection, schedule: Q01DX001 (ip), vehicle: carboxymethylcellulose (CMC)) 120 % of control [5 of 6 alive]. The survivor count (dose: 150.0 mg/kg/injection, schedule: Q01DX001 (ip), vehicle: carboxymethylcellulose (CMC)) is 0 of 6.

Consider `N/C(=N\Nc1c([N+](=O)[O-])cc([N+](=O)[O-])cc1[N+](=O)[O-])c1cc([N+](=O)[O-])cc([N+](=O)[O-])c1`, for which the T/C runs as follows: under setting [4], 97 % of control [survivor count not shown]; under setting [5], 87 % of control [survivor count not shown]; under setting [6], 89 % of control [survivor count not shown].

Turning to `[O-]/[N+](=C/c1ccc(N(CCCl)CCCl)cc1)CCO`, the T/C is 101 % of control under setting [4], 106 % of control under setting [5] and 108 % of control under setting [6].

Consider `CC(C)(C)C1COP(=O)(N(CCCl)CCCl)OC1` (stereo unspecified), for which the T/C reads like this: (dose: 62.5 mg/kg/injection, schedule: Q01DX001 (ip), vehicle: DMSO) 109 % of control; (dose: 125.0 mg/kg/injection, schedule: Q01DX001 (ip), vehicle: DMSO) 109 % of control [5 of 6 alive]. The survivor count (dose: 250.0 mg/kg/injection, schedule: Q01DX001 (ip), vehicle: DMSO) was 0 of 6 and the survivor count (dose: 500.0 mg/kg/injection, schedule: Q01DX001 (ip), vehicle: DMSO) is listed as 0 of 6.

Regarding `CCN(CC)CCOC(=O)C(O)(c1ccccc1)c1cc(C)ccc1C` (stereo unspecified), the T/C (dose: 75.0 mg/kg/injection, schedule: Q01DX001 (ip), vehicle: steroid suspending solution) is 104 % of control.

Take `CC(C)(C)c1ccc(P(=O)(Cl)C(C)(C)C)cc1` (stereo unspecified): the T/C reads like this: (dose: 75.0 mg/kg/injection, schedule: Q01DX001 (ip), vehicle: saline) 105 % of control; (dose: 150.0 mg/kg/injection, schedule: Q01DX001 (ip), vehicle: saline) 96 % of control; (dose: 300.0 mg/kg/injection, schedule: Q01DX001 (ip), vehicle: saline) 97 % of control.

As to `S=P(Cl)(Oc1ccccc1)c1ccccc1` (stereo unspecified), the T/C reads like this: (dose: 25.0 mg/kg/injection, schedule: Q01DX009 (ip), vehicle: Klucel (hydroxypropylcellulose) (HPC)) 101 % of control; (dose: 50.0 mg/kg/injection, schedule: Q01DX009 (ip), vehicle: Klucel (hydroxypropylcellulose) (HPC)) 97 % of control; (dose: 100.0 mg/kg/injection, schedule: Q01DX009 (ip), vehicle: Klucel (hydroxypropylcellulose) (HPC)) 90 and 92 % of control; (dose: 100.0 mg/kg/injection, schedule: Q04DX002 (ip), vehicle: Klucel (hydroxypropylcellulose) (HPC)) 113 % of control; (dose: 200.0 mg/kg/injection, schedule: Q04DX002 (ip), vehicle: Klucel (hydroxypropylcellulose) (HPC)) 100 % of control; (dose: 400.0 mg/kg/injection, schedule: Q04DX002 (ip), vehicle: Klucel (hydroxypropylcellulose) (HPC)) 107 % of control. The survivor count reads like this: (dose: 200.0 mg/kg/injection, schedule: Q01DX009 (ip), vehicle: Klucel (hydroxypropylcellulose) (HPC)) 1 of 3; (dose: 400.0 mg/kg/injection, schedule: Q01DX009 (ip), vehicle: Klucel (hydroxypropylcellulose) (HPC)) 0 of 3.

In the case of `O=C(Nc1ccc([N+](=O)[O-])cn1)NP(=O)(Nc1ccccc1)Nc1ccccc1`, the T/C runs as follows: (dose: 50.0 mg/kg/injection, schedule: Q01DX001 (ip), vehicle: carboxymethylcellulose (CMC)) 95 % of control; under setting [4], 95 % of control; under setting [5], 95 % of control. For the same compound, under setting [6], the survivor count is reported as 1 of 4.

On to `CC[P+]1(c2ccccc2)CCC(C)c2ccccc21.F[P-](F)(F)(F)(F)F` (stereo unspecified), for which the survivor count reads like this: (dose: 25.0 mg/kg/injection, schedule: Q04DX002 (ip), vehicle: saline with Tween-80) 0 of 3; (dose: 50.0 mg/kg/injection, schedule: Q04DX002 (ip), vehicle: saline with Tween-80) 0 of 3; (dose: 100.0 mg/kg/injection, schedule: Q04DX002 (ip), vehicle: saline with Tween-80) 0 of 3.

(Values after PubChem BioAssay AID248 (DTP/NCI, 2004).)
